{
  "source": "PubChem BioAssay AID2685",
  "about": "(National Center for Advancing Translational Sciences (NCATS), 2010)",
  "note": "The campaign covered roughly 320,000 compounds. About 2,100 (0.66%) were called active. The inconclusive results got no clear call from the source; some entries with a clear call stand among them for comparison. Calls follow the shape of the dose curve; as a rule, active = well fitted inhibition curve with a large enough effect in the signal ratio, with a control signal flat (not every such curve was filed as active); inconclusive = small, poorly fitted or top-dose-only effect, or effect the other way, or a change in a side signal; inactive = flat fitted curve, though single readings scatter; the % refers to the signal ratio. Potencies beside an inconclusive call are fits to weak or partial responses and may not hold up. % is scaled to controls: 0 for no effect and ±100 for the full control effect; potency is read from the fitted curve at half-maximal effect.",
  "data": [
    {"assay": "qHTS Assay for Lipid Storage Modulators in Drosophila S3 Cells", "settings": "BODIPY lipid droplet fluorescence, 18-24 h, cells fed with added oleic acid; lipid storage change, negative = inhibition: at 46.1 µM (top of the series) unless noted", "in_short": "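Drosophila S3 cells loaded with oleic acid (400 uM, as added) and compounds at several concentrations; lipid droplets imaged by 488-nm laser-scanning cytometry, 500–530 nm intensity and object ratio to cell channel. Percent activity normalized to 20 uM Triacsin C.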", "values": [
      {"smiles": "Cc1ccsc1/C=N/NC(=O)c1nnn(-c2nonc2N)c1CN(C)c1ccccc1", "Potency": "inconclusive: 13 µM [falling, partial curve]"},
      {"smiles": "CC(=O)c1cccc(NC(=O)N2CCCC2C(=O)Nc2cccc(C)c2)c1", "note": "(centres undefined)", "Potency": "inconclusive: 2.31 µM [activator, partial curve]"},
      {"smiles": "CCCOC(=O)C1=C(C)NC2=C(C(=O)CCC2)C1c1ccc(N(C)C)cc1", "note": "(centres undefined)", "lipid storage change, negative = inhibition": "inconclusive: 9.53%"},
      {"smiles": "Cc1ccc(C(=O)O/N=C(\\N)Cc2ccc([N+](=O)[O-])cc2)c(Cl)c1", "lipid storage change, negative = inhibition": "inconclusive: 1.79%"},
      {"smiles": "Cc1cc(NC(=O)CSc2nccn2C)no1", "lipid storage change, negative = inhibition": "inconclusive: 16.9%"},
      {"smiles": "CCN(CC)CC(=O)Nc1sc(C)c(C)c1C(=O)c1ccc(C)cc1", "Potency": "inconclusive: 18.4 µM [activator, partial curve]"},
      {"smiles": "CCCCNC(=O)COC(=O)c1ccccc1F", "lipid storage change, negative = inhibition": "inconclusive: -7.05%"},
      {"smiles": "COc1ccccc1N1CCN(Cc2cc(Br)c(O)c3ncccc23)CC1", "lipid storage change, negative = inhibition": "inconclusive: -20%"},
      {"smiles": "CCN(CC)C(=O)CSc1nc(Cc2ccccc2)nc2ccccc12", "lipid storage change, negative = inhibition": "inconclusive: -2.84%"},
      {"smiles": "CC1CCc2c(sc(NC(=O)COC(=O)c3ccc(NC(=O)CC#N)cc3)c2C#N)C1", "note": "(centres undefined)", "lipid storage change, negative = inhibition": "inconclusive: 31.8%"},
      {"smiles": "COc1ccc(C(=O)OCC(=O)NCCN2C(=O)CSC2=O)cc1", "lipid storage change, negative = inhibition": "inconclusive: -4.94%"},
      {"smiles": "Cc1cccc(NC(=O)/C(C#N)=C/c2ccc[nH]2)c1C", "lipid storage change, negative = inhibition": "inconclusive: 27.1%"},
      {"smiles": "COC(=O)/C=C1\\N/C(=N/c2nc(C)c3cc(OC)ccc3n2)NC1=O", "lipid storage change, negative = inhibition": "inconclusive: -179%"},
      {"smiles": "Cn1c(SCC(=O)Nc2ccc(Cl)cc2)nc(O)cc1=O", "Potency": "inconclusive: 0.146 µM [falling, full curve, poor fit]"},
      {"smiles": "Cc1ccc(OCC(=O)N(Cc2ccco2)c2c(N)n(Cc3ccccc3)c(=O)[nH]c2=O)cc1C", "Potency": "inconclusive: 7.31 µM [falling, partial curve, poor fit]"},
      {"smiles": "Cc1cc(C)c2nc(-c3ccccn3)cc(C(=O)NCc3cc(C)n(C)n3)c2c1", "Potency": "inconclusive: 29.1 µM [rising, partial curve, poor fit]"},
      {"smiles": "Cc1nc(N2CCCCC2)c2sc(=S)n(C)c2n1", "lipid storage change, negative = inhibition": "inconclusive: -5.91%"},
      {"smiles": "O=C(CNC(=O)c1ccc(Br)cc1)OCC(=O)c1ccccc1", "lipid storage change, negative = inhibition": "inconclusive: 145%"},
      {"smiles": "O=C(NCC1CCN(c2ccc(S(=O)(=O)N3CCOCC3)cc2)CC1)c1ccc(Cl)cc1", "Potency": "inconclusive: 0.013 µM [rising, full curve, poor fit]"},
      {"smiles": "Cc1cccc(N(Cc2ccccc2)C(=O)c2ccccc2S(C)(=O)=O)c1", "lipid storage change, negative = inhibition": "inconclusive: -8.08%"},
      {"smiles": "O=C(Nc1ccc(F)cc1)c1ccc(NC(=O)C2CCCO2)cc1", "note": "(centres undefined)", "lipid storage change, negative = inhibition": "inconclusive: -12.1%"},
      {"smiles": "COc1cc2c(cc1OC)C1O[C@](CCCCN3C(=O)c4ccccc4C3=O)(C2)OC2=C1C(=O)OC1(CCCCC1)C2", "lipid storage change, negative = inhibition": "inconclusive: -8.99% [at 9.22 µM]"},
      {"smiles": "CC(=O)N1CCN(C(=S)Nc2cc(S(=O)(=O)N3CCOCC3)ccc2Cl)CC1", "lipid storage change, negative = inhibition": "inconclusive: 9.21%"},
      {"smiles": "CC(=O)CC(=O)Nc1nc(C)cc(C)n1", "lipid storage change, negative = inhibition": "inconclusive: 19%"},
      {"smiles": "COc1cccc(-c2nnc(SCCC(=O)O)n2C)c1", "Potency": "inconclusive: 20.6 µM [falling, single point]"},
      {"smiles": "C=CCNC(=O)CN1CCC(NC(=O)c2ccco2)CC1", "lipid storage change, negative = inhibition": "inconclusive: -0.159%"},
      {"smiles": "O=C(Nc1cccc(C(F)(F)F)c1)N1CCC(c2nc(-c3ccc(F)cc3)no2)CC1", "lipid storage change, negative = inhibition": "inconclusive: -41.4%"},
      {"smiles": "COC(=O)c1sccc1NC(=O)c1ccc(C(C)C)cc1", "Potency": "inconclusive: 2.06 µM [activator, partial curve, poor fit]"},
      {"smiles": "COCc1cc(C)nc(NCCc2ccccc2)c1C#N", "lipid storage change, negative = inhibition": "inconclusive: -0.336%"},
      {"smiles": "COc1ccccc1N1CCN(C(=O)Cc2cccs2)CC1", "lipid storage change, negative = inhibition": "inconclusive: 130%"},
      {"smiles": "CC(C)CN(C(=O)c1ccc([N+](=O)[O-])s1)c1c(N)n(Cc2ccccc2)c(=O)[nH]c1=O", "Potency": "inconclusive: 6.51 µM [falling, single point]"},
      {"smiles": "CC1(C(=O)O)CCC(C(=O)NC2CCCCCC2)C1(C)C", "note": "(centres undefined)", "Potency": "inconclusive: 0.0052 µM [falling, full curve, poor fit]"},
      {"smiles": "CC(C)[C@@H](C(=O)O)N(Cc1cccc(CN([C@H](C(=O)O)C(C)C)S(C)(=O)=O)c1)S(C)(=O)=O", "Potency": "inconclusive: 2.59 µM [activator, partial curve]"},
      {"smiles": "CCn1c(=O)cc(C(=O)OC)sc1=Nc1ccc(F)c(F)c1", "lipid storage change, negative = inhibition": "inconclusive: 7.81%"},
      {"smiles": "Nc1c(C(=O)Nc2ccc(Cl)c(Cl)c2)sc2nc(-c3cccnc3)ccc12", "Potency": "inconclusive: 0.517 µM [activator, partial curve]"},
      {"smiles": "CCN(CC)CCCN(C(=O)c1ccccc1F)c1nc(-c2ccc(OC)cc2)cs1", "lipid storage change, negative = inhibition": "inconclusive: -22%"},
      {"smiles": "CCc1ccc(OCC(=O)O/N=C(\\N)c2ccncc2)c(Br)c1", "lipid storage change, negative = inhibition": "inconclusive: -24.7%"},
      {"smiles": "CCCCCCc1nc2ccccc2c(=O)n1NC(=O)c1c(O)c2cccc3c2n(c1=O)CCC3", "Potency": "inconclusive: 14.6 µM [activator, partial curve]"},
      {"smiles": "O=C(NCc1ccccn1)c1cccc(S(=O)(=O)Nc2ccc(SC(F)F)cc2)c1", "lipid storage change, negative = inhibition": "inconclusive: 31.8%"},
      {"smiles": "COC(=O)c1cc2oc(C)cc2n1CC(=O)N(C)c1ccccc1", "Potency": "inconclusive: 6.51 µM [falling, single point]"},
      {"smiles": "CN(c1ccccc1)S(=O)(=O)c1ccc2[nH]c(=O)oc2c1", "lipid storage change, negative = inhibition": "inconclusive: -12.6%"},
      {"smiles": "O=C(Nc1nnc(-c2ccccc2Cl)o1)c1ccco1", "Potency": "inconclusive: 6.51 µM [cytotoxic, single point]"},
      {"smiles": "O=C(NCc1ccccc1Cl)c1ccc(CS(=O)(=O)c2ccccc2)o1", "lipid storage change, negative = inhibition": "inconclusive: -0.336%"},
      {"smiles": "CN(C(=O)CSc1cc(C(=O)c2nccn2C)c2ccccc2n1)c1ccccc1", "lipid storage change, negative = inhibition": "inconclusive: -18.4%"},
      {"smiles": "CSCCC(NC(=O)c1ccccc1)C(=O)N1CCN(Cc2ccc(Cl)cc2)CC1", "note": "(centres undefined)", "lipid storage change, negative = inhibition": "inconclusive: -12.3%"},
      {"smiles": "OCC1(Cc2ccccc2)CCN(Cc2cccc(F)c2F)CC1", "lipid storage change, negative = inhibition": "inconclusive: -8.68%"},
      {"smiles": "CC1(C)C(c2cccs2)=[N+]([O-])C2(CCCCC/C2=N\\NC(N)=S)N1O", "note": "(centres undefined)", "lipid storage change, negative = inhibition": "inconclusive: 0.466%"},
      {"smiles": "CC(=O)Nc1ccc(S(=O)(=O)N(C)CC(=O)NCCC2=CCCCC2)cc1", "lipid storage change, negative = inhibition": "inconclusive: -43.7%"},
      {"smiles": "CCn1nc(C)c(/C=N/NC(=S)Nc2ccc(Cl)cc2Cl)c1C", "Potency": "inconclusive: 0.411 µM [rising, full curve]"},
      {"smiles": "CN(CC(=O)NC1CCN(Cc2ccccc2)CC1)S(=O)(=O)c1ccc(Br)s1", "Potency": "inconclusive: 25.9 µM [falling, single point]"},
      {"smiles": "Cc1ccc(O)c(/C=N/NC(=O)c2[nH]ncc2Br)c1", "lipid storage change, negative = inhibition": "inconclusive: -40.5%"},
      {"smiles": "CC(=O)c1ccc(C(=O)Nc2sc3c(c2C(N)=O)CCN(Cc2ccccc2)C3)cc1", "lipid storage change, negative = inhibition": "inconclusive: -42.6%"},
      {"smiles": "O=C(CNS(=O)(=O)c1c(F)cc(F)cc1Br)OCC(=O)N1CCCC1=O", "Potency": "inconclusive: 29.1 µM [activator, single point]"},
      {"smiles": "CCCCC1(C(=O)OCC)CC(CN2CCOCC2)OC1=O", "note": "(centres undefined)", "Potency": "inconclusive: 6.51 µM [falling, single point]"},
      {"smiles": "COc1cc(OC)cc(C(=O)NCCSc2c[nH]c3ccccc23)c1", "lipid storage change, negative = inhibition": "inconclusive: -16.1%"},
      {"smiles": "O=C1CCC(=O)N1c1ccccc1-c1ccccc1", "Potency": "inconclusive: 23.1 µM [falling, single point]"},
      {"smiles": "CCN(CC)S(=O)(=O)c1ccc(N2CCN(CCOc3ccc(OC)cc3)CC2)nc1", "lipid storage change, negative = inhibition": "inconclusive: -32.1%"},
      {"smiles": "COC(=O)/N=C(/Cc1ccc(OC)cc1)c1ccc(OC)cc1", "Potency": "inconclusive: 6.51 µM [activator, single point]"},
      {"smiles": "O=C(COC(=O)c1cnccn1)c1ccc(-c2ccccc2)cc1", "lipid storage change, negative = inhibition": "inconclusive"},
      {"smiles": "Cn1c(N)c(C(=O)COC(=O)Cc2ccc(F)cc2)c(=O)n(C)c1=O", "lipid storage change, negative = inhibition": "inconclusive"},
      {"smiles": "O=C(c1cc2ccccc2c(=O)o1)N1CCc2ccccc2C1", "lipid storage change, negative = inhibition": "inconclusive: 9.63%"},
      {"smiles": "C/C(CC(=O)Nc1ccc(N(C)C)cc1)=N\\NC(=O)c1ccccn1", "lipid storage change, negative = inhibition": "inconclusive: 0.167%"},
      {"smiles": "O=C(Cc1cccs1)N(c1ccc(Br)cc1)C1C=CS(=O)(=O)C1", "note": "(centres undefined)", "lipid storage change, negative = inhibition": "inconclusive: -11.4%"},
      {"smiles": "CN(C)c1ccc(/C=N\\NC(=O)c2csnn2)cc1", "lipid storage change, negative = inhibition": "inconclusive: 2.33%"},
      {"smiles": "Cc1ccc(C(=O)Nc2ccc(S(=O)(=O)Nc3ncccn3)cc2)cc1[N+](=O)[O-]", "Potency": "inconclusive: 0.058 µM [activator, full curve, poor fit]"},
      {"smiles": "c1ccc(CCNCC2COc3ccccc3O2)cc1", "note": "(centres undefined)", "lipid storage change, negative = inhibition": "inactive: 7.04%"},
      {"smiles": "CC(C(=O)Nc1cccnc1)c1ccc([N+](=O)[O-])cc1", "note": "(centres undefined)", "Potency": "inconclusive: 0.411 µM [activator, partial curve, poor fit]"},
      {"smiles": "COC(=O)C1=C(C)NC(=S)NC1c1ccc(OCC(=O)N2CC(C)OC(C)C2)c(OC)c1", "note": "(centres undefined)", "lipid storage change, negative = inhibition": "inconclusive: -30.2%"},
      {"smiles": "Cc1ccc(S(=O)(=O)C(C#N)c2nc3ccccc3nc2OCCO)cc1", "note": "(centres undefined)", "lipid storage change, negative = inhibition": "inconclusive: 13.8%"},
      {"smiles": "Cn1nc(C(=O)NC(C)(C)C)c2ccccc21", "Potency": "inconclusive: 16.4 µM [activator, partial curve]"},
      {"smiles": "Cc1cc(C)c(C#N)c(OCC(=O)c2ccc(Br)cc2)n1", "lipid storage change, negative = inhibition": "inconclusive: 20.6%"},
      {"smiles": "Cc1ccc(S(=O)(=O)N2CCC(=O)N(CCOCc3cccc(C(F)(F)F)c3)CC2)cc1", "lipid storage change, negative = inhibition": "inconclusive: 23%"},
      {"smiles": "CC1CCCC(C)N1C(=O)c1cccc2c1-c1ccccc1/C2=N/O", "note": "(centres undefined)", "lipid storage change, negative = inhibition": "inconclusive: -2.9%"},
      {"smiles": "Cc1cc(=O)oc2cc(OCC(=O)N/N=C/c3ccccc3[N+](=O)[O-])ccc12", "Potency": "inconclusive: 29.1 µM [cytotoxic, single point]"}
    ]}
  ]
}
